The values that follow come from PMC9834230, “The HAPSTR2 retrogene buffers stress signaling and resilience in mammals” (Nature Communications, 2023).

The target in this assay is T1, recombinant maltose-binding protein (MBP)-tagged HAPSTR2 (human).
T1 sequence: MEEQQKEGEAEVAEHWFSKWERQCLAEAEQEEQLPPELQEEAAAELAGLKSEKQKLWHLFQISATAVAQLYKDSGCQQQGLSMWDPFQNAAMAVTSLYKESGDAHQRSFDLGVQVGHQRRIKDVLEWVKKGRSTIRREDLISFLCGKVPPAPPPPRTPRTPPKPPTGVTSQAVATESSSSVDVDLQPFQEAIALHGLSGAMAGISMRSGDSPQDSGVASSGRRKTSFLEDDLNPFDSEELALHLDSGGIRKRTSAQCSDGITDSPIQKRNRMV
Briefly: pull-down; recombinant MBP-tagged bait on amylose resin; 2.5 mg protein of 293T whole cell lysate, overnight at 4 °C; wash buffer 10 mM Tris-HCl, 200 mM NaCl, 1 mM EDTA, 1 mM DTT, pH 7.5; eluted with 10 mM maltose; immunoblot; only the target purified.

No constants are given. Whether binding was seen depends on the method and setting. In cells and extracts the contact can be indirect. Binding calls can cover weak binding; strength is not graded here. Tags and fused reporters may be left off the sequences shown.

On to “endogenous HAPSTR1, short isoform (human (endogenous in 293T))”, for which the binding result was “binds”.
